Measurements as given in PMC9700832.

Biological target: T1, B. thuringiensis serovar israelensis LexA (Bacillus thuringiensis serovar israelensis) (UniProt A0RH75)
T1 sequence: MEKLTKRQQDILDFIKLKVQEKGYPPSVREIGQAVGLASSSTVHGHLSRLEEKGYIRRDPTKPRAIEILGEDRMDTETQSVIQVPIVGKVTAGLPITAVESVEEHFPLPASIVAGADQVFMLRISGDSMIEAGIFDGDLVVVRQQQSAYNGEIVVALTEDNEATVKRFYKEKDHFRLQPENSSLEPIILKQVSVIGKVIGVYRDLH
Assay: SPR; each LexA immobilised on a separate CM5 chip (1200 to 1300 RU); analytes 6-1458 nM in 3-fold dilutions, 180 s at 30 uL/min, 25 °C; 20 mM HEPES pH 7.4, 150 mM NaCl, 3 mM EDTA, 0.1 mg/mL BSA, 0.005% P20; steady-state affinity fit; apparent KD, mean of two titrations; both purified

Substance	binding
gp7 protein of GIL01 phage (bacteriophage GIL01)	binds
tectiviral gp7 homolog from B. cereus AND1284 phage Sato	binds

These are yes or no findings as the source states them, for the method shown. Binding calls can cover weak binding; strength is not graded here.
